{
  "sequences": {"note": "Protein sequences, listed by entry. Tags and fused reporters are not part of them.", "UniProt O00522": "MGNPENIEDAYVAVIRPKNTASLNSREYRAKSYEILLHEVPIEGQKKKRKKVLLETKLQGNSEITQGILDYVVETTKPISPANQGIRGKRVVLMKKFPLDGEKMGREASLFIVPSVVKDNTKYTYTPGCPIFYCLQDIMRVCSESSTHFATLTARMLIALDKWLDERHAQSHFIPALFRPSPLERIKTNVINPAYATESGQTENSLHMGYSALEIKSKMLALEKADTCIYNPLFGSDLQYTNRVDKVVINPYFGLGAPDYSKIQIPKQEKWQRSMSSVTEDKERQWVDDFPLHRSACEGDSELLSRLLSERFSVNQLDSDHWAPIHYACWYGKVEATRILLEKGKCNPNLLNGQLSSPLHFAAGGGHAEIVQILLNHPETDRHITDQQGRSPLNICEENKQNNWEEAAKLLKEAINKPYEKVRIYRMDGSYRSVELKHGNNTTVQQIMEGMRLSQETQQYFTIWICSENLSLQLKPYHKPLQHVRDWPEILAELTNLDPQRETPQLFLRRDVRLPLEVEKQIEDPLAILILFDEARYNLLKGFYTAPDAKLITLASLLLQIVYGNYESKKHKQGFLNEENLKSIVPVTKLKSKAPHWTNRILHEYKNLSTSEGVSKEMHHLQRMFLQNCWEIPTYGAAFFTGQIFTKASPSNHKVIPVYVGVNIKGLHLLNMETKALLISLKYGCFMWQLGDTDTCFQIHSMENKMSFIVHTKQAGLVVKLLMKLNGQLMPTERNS"},
  "source": "paper PMC3435375",
  "target": "T1, GST-Nd1-L (496-642) fusion protein (mouse) (UniProt Q920Q8)",
  "T1 sequence": "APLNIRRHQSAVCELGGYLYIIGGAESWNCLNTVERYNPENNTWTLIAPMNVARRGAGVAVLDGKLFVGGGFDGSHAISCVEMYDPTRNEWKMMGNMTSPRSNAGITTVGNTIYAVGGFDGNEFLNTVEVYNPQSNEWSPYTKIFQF",
  "assay": "pull-down; GST fusion proteins (40 ug) immobilised on glutathione-sepharose 4B beads, incubated 1 h at room temperature with HEK293 lysates overexpressing GFP- or 2FLAG-tagged proteins; washed three times with PBS; anti-GFP or anti-FLAG western blot; only the target purified",
  "note": "No constants are given. Whether binding was seen depends on the method and setting. In cells and extracts the contact can be indirect. Some binding calls cover weakened binding; strength is not graded here. Sequences can lack the tags named with a protein.",
  "data": [
    {"substance": "GFP-KRIT1A (EGFP-tagged full-length KRIT1A, pEGFP-KRIT1A) (from UniProt O00522 1-736)", "values": [
      {"measurement": "binding", "value": "binds"}
    ]}
  ]
}
